This passage reports binding results from paper PMC7951927.

By UniProt entry, the sequences of proteins in these tests, tags left out.
UniProt Q8IWT3: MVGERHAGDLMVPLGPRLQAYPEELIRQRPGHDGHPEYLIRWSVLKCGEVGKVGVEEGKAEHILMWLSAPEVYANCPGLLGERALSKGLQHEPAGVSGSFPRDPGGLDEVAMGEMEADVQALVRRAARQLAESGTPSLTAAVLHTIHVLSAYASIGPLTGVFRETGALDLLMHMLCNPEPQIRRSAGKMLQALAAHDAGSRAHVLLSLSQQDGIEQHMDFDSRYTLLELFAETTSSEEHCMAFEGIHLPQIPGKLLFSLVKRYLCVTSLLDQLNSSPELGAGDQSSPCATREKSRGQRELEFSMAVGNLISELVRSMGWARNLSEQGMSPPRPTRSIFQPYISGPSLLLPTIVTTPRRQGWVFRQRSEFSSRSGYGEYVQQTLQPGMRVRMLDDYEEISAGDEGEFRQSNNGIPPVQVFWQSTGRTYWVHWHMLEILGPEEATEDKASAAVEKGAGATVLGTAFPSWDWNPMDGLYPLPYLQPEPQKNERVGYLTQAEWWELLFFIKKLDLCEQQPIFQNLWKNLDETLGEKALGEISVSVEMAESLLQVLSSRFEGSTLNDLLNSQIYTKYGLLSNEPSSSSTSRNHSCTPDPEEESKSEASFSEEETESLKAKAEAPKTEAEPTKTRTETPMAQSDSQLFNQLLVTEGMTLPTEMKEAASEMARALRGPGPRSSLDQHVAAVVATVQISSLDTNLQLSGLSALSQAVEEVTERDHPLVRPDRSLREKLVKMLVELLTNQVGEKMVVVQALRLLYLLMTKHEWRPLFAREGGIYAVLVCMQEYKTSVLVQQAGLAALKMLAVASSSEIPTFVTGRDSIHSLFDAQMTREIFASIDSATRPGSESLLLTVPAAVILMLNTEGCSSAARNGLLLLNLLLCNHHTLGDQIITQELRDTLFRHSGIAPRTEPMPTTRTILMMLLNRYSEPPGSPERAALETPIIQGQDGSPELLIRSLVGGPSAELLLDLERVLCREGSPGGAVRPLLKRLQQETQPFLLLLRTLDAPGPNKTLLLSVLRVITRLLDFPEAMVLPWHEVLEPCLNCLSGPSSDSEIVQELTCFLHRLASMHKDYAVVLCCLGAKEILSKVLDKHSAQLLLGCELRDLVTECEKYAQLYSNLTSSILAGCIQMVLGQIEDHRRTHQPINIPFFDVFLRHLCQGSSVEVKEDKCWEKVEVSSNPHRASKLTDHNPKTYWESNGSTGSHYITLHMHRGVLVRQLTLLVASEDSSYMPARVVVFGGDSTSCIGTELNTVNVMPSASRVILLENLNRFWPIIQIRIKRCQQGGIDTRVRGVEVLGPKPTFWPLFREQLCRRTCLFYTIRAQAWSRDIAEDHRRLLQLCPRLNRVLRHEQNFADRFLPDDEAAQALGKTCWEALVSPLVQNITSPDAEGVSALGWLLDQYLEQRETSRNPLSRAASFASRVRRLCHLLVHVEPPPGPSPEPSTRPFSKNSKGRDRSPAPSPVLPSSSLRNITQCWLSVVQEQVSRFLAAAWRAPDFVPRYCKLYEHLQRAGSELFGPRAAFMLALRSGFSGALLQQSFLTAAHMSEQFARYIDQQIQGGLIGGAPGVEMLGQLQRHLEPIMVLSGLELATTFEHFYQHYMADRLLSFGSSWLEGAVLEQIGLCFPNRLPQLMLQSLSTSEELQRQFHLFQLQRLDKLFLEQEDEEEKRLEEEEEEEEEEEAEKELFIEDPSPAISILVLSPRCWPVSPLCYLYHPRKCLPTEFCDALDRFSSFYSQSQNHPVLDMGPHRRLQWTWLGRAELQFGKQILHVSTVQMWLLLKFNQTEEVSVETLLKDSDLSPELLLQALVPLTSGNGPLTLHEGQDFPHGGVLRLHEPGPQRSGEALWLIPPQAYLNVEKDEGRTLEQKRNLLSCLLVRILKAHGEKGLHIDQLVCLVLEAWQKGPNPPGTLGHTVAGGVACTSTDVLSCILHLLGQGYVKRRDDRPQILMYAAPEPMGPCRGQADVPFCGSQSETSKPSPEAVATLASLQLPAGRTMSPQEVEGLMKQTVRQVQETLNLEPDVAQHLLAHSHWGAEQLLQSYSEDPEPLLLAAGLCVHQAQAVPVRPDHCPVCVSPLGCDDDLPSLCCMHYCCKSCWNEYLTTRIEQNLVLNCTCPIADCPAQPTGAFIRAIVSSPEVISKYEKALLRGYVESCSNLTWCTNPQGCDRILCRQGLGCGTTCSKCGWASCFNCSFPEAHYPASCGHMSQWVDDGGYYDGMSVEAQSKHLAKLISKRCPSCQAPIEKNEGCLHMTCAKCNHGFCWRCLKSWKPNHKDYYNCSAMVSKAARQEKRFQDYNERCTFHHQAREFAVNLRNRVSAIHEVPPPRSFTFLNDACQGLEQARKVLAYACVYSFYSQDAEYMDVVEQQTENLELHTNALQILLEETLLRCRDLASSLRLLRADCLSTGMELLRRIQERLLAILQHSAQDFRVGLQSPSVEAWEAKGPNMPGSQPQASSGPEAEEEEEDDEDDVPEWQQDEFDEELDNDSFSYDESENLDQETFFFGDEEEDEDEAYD
UniProt Q9UJX4: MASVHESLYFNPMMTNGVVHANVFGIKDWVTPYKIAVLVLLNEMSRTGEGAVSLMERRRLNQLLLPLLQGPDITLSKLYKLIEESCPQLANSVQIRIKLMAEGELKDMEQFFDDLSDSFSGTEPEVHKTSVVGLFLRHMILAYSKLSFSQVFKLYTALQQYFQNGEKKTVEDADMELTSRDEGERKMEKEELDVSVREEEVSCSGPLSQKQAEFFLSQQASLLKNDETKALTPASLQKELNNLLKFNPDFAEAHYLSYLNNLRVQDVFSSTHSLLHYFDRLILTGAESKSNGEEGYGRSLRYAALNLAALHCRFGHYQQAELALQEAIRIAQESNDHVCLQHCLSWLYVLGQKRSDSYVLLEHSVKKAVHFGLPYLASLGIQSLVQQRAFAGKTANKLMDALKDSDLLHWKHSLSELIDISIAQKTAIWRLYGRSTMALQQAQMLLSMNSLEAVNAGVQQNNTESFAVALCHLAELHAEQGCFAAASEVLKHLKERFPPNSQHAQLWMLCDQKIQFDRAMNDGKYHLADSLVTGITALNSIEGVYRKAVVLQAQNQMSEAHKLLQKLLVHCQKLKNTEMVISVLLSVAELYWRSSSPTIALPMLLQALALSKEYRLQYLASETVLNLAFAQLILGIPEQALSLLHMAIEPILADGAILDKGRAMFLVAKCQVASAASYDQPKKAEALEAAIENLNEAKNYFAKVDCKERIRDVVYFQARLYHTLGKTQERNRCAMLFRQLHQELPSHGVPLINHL
UniProt P53621: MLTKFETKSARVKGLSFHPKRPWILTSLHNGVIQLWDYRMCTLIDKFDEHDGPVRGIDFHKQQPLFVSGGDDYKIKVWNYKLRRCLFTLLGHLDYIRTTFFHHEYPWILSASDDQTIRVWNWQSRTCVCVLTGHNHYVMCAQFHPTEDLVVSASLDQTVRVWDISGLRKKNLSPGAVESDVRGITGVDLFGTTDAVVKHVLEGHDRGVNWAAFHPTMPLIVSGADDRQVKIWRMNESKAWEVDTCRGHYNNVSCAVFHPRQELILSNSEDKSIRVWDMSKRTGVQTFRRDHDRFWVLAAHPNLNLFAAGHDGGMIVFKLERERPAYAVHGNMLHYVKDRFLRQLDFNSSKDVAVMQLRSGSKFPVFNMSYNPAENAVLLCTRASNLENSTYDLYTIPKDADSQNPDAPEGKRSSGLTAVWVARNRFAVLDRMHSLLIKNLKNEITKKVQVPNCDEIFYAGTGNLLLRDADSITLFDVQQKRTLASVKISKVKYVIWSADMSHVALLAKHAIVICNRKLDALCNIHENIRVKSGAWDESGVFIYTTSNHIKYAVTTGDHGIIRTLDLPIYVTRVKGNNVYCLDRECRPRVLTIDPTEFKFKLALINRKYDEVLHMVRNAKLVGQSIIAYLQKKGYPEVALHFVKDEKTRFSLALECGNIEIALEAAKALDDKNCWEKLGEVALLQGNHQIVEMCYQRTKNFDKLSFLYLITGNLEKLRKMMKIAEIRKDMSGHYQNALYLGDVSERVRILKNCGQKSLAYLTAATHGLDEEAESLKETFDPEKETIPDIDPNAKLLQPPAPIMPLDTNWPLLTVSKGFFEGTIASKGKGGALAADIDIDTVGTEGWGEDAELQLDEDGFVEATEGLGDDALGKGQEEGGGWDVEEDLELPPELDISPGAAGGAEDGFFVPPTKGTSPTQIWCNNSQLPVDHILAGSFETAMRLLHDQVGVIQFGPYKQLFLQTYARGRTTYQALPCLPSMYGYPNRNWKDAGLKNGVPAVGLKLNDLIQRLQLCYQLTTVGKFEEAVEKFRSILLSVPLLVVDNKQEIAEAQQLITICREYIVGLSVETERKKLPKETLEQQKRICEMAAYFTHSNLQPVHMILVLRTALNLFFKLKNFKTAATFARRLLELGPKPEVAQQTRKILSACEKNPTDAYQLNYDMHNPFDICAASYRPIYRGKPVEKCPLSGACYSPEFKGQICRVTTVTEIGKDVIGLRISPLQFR
UniProt Q14999: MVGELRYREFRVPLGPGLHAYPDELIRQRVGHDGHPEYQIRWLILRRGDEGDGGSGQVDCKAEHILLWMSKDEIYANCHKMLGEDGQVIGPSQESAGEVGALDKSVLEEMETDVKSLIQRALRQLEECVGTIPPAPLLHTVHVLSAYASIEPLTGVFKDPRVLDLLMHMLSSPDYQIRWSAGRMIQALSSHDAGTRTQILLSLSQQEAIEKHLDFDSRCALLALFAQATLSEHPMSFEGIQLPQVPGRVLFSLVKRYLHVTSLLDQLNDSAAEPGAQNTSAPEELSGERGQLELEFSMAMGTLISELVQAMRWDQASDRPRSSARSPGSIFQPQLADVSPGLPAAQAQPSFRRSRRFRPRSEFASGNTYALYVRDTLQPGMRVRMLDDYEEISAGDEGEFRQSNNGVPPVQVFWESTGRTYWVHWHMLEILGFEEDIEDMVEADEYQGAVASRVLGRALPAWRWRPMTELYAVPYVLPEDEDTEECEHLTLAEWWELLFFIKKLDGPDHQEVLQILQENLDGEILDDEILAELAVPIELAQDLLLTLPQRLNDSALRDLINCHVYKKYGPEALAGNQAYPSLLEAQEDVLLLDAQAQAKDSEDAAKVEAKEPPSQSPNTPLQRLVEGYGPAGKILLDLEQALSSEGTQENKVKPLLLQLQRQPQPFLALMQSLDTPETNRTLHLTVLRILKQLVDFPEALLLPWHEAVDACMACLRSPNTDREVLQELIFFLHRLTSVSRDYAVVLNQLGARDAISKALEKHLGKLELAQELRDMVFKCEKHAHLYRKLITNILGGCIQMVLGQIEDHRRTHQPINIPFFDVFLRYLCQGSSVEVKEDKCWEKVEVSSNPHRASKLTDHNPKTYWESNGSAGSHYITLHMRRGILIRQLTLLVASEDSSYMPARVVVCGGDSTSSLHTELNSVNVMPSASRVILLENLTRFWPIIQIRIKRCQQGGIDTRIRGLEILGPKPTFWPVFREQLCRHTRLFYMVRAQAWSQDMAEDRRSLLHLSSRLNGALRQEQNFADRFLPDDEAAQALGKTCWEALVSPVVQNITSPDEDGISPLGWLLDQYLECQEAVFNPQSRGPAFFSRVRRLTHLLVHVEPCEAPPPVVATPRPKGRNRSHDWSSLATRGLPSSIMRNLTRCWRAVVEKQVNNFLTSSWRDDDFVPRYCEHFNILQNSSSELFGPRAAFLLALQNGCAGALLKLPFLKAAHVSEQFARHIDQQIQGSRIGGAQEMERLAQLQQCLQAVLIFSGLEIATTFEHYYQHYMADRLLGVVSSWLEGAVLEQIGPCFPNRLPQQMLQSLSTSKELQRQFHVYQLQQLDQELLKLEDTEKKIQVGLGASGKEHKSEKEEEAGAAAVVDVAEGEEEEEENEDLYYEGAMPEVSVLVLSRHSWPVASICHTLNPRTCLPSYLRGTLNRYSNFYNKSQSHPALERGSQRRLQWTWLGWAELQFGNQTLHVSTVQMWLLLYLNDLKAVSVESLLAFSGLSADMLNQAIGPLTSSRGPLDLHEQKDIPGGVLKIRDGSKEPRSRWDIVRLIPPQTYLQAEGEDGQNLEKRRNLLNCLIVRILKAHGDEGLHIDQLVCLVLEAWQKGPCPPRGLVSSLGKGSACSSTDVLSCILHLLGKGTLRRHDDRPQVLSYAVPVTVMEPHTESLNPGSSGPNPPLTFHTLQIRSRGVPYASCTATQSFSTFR

No constants are given. Whether binding was seen depends on the method and setting. Binding seen in cells or lysates may run through a third protein. Here binding means that the protein was enriched with, or labelled near, the bait; the list need not be complete.

B1: Hydroxymethylglutaryl-CoA synthase, cytoplasmic (protein, UniProt Q01581 1-520)
chain: MPGSLPLNAEACWPKDVGIVALEIYFPSQYVDQAELEKYDGVDAGKYTIGLGQAKMGFCTDREDINSLCMTVVQNLMERNNLSYDCIGRLEVGTETIIDKSKSVKTNLMQLFEESGNTDIEGIDTTNACYGGTAAVFNAVNWIESSSWDGRYALVVAGDIAVYATGNARPTGGVGAVALLIGPNAPLIFERGLRGTHMQHAYDFYKPDMLSEYPIVDGKLSIQCYLSALDRCYSVYCKKIHAQWQKEGNDKDFTLNDFGFMIFHSPYCKLVQKSLARMLLNDFLNDQNRDKNSIYSGLEAFGDVKLEDTYFDRDVEKAFMKASSELFSQKTKASLLVSNQNGNMYTSSVYGSLASVLAQYSPQQLAGKRIGVFSYGSGLAATLYSLKVTQDATPGSALDKITASLCDLKSRLDSRTGVAPDVFAENMKLREDTHHLVNYIPQGSIDSLFEGTWYLVRVDEKHRRTYARRPTPNDDTLDEGVGLVHSNIATEHIPSPAKKVPRLPATAAEPEAAVISNGEH
B2: Apoptotic chromatin condensation inducer in the nucleus (protein, UniProt Q9UKV3 1-1341)
chain: MWRRKHPRTSGGTRGVLSGNRGVEYGSGRGHLGTFEGRWRKLPKMPEAVGTDPSTSRKMAELEEVTLDGKPLQALRVTDLKAALEQRGLAKSGQKSALVKRLKGALMLENLQKHSTPHAAFQPNSQIGEEMSQNSFIKQYLEKQQELLRQRLEREAREAAELEEASAESEDEMIHPEGVASLLPPDFQSSLERPELELSRHSPRKSSSISEEKGDSDDEKPRKGERRSSRVRQARAAKLSEGSQPAEEEEDQETPSRNLRVRADRNLKTEEEEEEEEEEEEDDEEEEGDDEGQKSREAPILKEFKEEGEEIPRVKPEEMMDERPKTRSQEQEVLERGGRFTRSQEEARKSHLARQQQEKEMKTTSPLEEEEREIKSSQGLKEKSKSPSPPRLTEDRKKASLVALPEQTASEEETPPPLLTKEASSPPPHPQLHSEEEIEPMEGPAPAVLIQLSPPNTDADTRELLVSQHTVQLVGGLSPLSSPSDTKAESPAEKVPEESVLPLVQKSTLADYSAQKDLEPESDRSAQPLPLKIEELALAKGITEECLKQPSLEQKEGRRASHTLLPSHRLKQSADSSSSRSSSSSSSSSRSRSRSPDSSGSRSHSPLRSKQRDVAQARTHANPRGRPKMGSRSTSESRSRSRSRSRSASSNSRKSLSPGVSRDSSTSYTETKDPSSGQEVATPPVPQLQVCEPKERTSTSSSSVQARRLSQPESAEKHVTQRLQPERGSPKKCEAEEAEPPAATQPQTSETQTSHLPESERIHHTVEEKEEVTMDTSENRPENDVPEPPMPIADQVSNDDRPEGSVEDEEKKESSLPKSFKRKISVVSATKGVPAGNSDTEGGQPGRKRRWGASTATTQKKPSISITTESLKSLIPDIKPLAGQEAVVDLHADDSRISEDETERNGDDGTHDKGLKICRTVTQVVPAEGQENGQREEEEEEKEPEAEPPVPPQVSVEVALPPPAEHEVKKVTLGDTLTRRSISQQKSGVSITIDDPVRTAQVPSPPRGKISNIVHISNLVRPFTLGQLKELLGRTGTLVEEAFWIDKIKSHCFVTYSTVEEAVATRTALHGVKWPQSNPKFLCADYAEQDELDYHRGLLVDRPSETKTEEQGIPRPLHPPPPPPVQPPQHPRAEQREQERAVREQWAEREREMERRERTRSEREWDRDKVREGPRSRSRSRDRRRKERAKSKEKKSEKKEKAQEEPPAKLLDDLFRKTKAAPCIYWLPLTDSQIVQKEAERAERAKEREKRRKEQEEEEQKEREKEAERERNRQLEREKRREHSRERDRERERERERDRGDRDRDRERDRERGRERDRRDTKRHSRSRSRSTPVRDRGGRR

The target of the test is Cullin-9 (human (endogenous in hPSCs, hNSCs, hNPCs)) (UniProt Q8IWT3). The test is described as follows: affinity purification with mass spectrometry; endogenous CUL9 immunoprecipitated (anti-CUL9, Dynabeads, 1% Triton washes) from 2 mg whole-cell hPSC lysate, cells treated with bortezomib; IgG control; LC-MS/MS.
“ATP-dependent RNA helicase DDX3X (from UniProt O00571 1-662)”: the binding result is listed as “binds”.

For “Anaphase-promoting complex subunit 1 (from UniProt Q9H1A4 1-1944)”, the binding result is given as “binds”.

Regarding “Anaphase-promoting complex subunit 4 (from UniProt Q9UJX5 1-808)”, the binding result is recorded as “binds”.

“Anaphase-promoting complex subunit 5 (from UniProt Q9UJX4 1-755)”: the binding result is “binds”.

Turning to “Coatomer subunit alpha (from UniProt P53621 1-1224)”, the binding entry is reported as “binds”.

Cullin-7 (from UniProt Q14999 1-1698): the binding result was “binds”.

As for “Cytoplasmic dynein 1 heavy chain 1 (from UniProt Q14204 1-4646)”, the binding entry is listed as “binds”.

“Eukaryotic initiation factor 4A-III (from UniProt P38919 1-411)”: the binding entry is “binds”.

With “Nuclear pore complex protein Nup153 (from UniProt P49790 1-1475)”, the binding entry was “binds”.

For “U5 small nuclear ribonucleoprotein 200 kDa helicase (from UniProt O75643 1-2136)”, the binding entry was “binds”.

As for B1, the binding entry is “binds”.

For B2, the binding entry is “binds”.
